Data: article PMC7958122, “Insulin-Like Growth Factor Binding Protein-3 Exerts Its Anti-Metastatic Effect in Aerodigestive Tract Cancers by Disrupting the Protein Stability of Vimentin” (Cancers, 2021)
Results are given in words; binding and its absence hold for the method and conditions named. For some assays here: Binding seen in cells or lysates may run through a third protein. Some results given as binding are weak or reduced against the parent protein; the word gives no strength. For some assays here: Where a sequence is shown, tags or fusion partners need not be part of it.

Chains of the proteins cited; added tags and fusions are not shown. Lines headed by an entry give the natural chain unless they say otherwise; changes in a name come on top. A line that says so, or that is headed by a name, gives the form on record, which may keep a tag or linker. Residues count along the entry.
UniProt Q8N1E6: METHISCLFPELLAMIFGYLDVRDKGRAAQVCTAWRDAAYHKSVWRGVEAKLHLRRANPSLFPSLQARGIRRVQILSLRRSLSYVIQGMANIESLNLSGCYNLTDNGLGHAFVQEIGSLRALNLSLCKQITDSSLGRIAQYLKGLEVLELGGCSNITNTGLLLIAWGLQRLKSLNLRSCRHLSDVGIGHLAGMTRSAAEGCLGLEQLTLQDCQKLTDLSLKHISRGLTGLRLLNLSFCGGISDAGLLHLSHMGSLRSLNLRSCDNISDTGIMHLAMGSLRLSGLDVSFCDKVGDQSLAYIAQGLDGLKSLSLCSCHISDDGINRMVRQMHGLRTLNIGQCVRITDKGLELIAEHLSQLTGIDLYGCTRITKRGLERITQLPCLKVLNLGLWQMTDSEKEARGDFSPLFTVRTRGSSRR
UniProt P08670: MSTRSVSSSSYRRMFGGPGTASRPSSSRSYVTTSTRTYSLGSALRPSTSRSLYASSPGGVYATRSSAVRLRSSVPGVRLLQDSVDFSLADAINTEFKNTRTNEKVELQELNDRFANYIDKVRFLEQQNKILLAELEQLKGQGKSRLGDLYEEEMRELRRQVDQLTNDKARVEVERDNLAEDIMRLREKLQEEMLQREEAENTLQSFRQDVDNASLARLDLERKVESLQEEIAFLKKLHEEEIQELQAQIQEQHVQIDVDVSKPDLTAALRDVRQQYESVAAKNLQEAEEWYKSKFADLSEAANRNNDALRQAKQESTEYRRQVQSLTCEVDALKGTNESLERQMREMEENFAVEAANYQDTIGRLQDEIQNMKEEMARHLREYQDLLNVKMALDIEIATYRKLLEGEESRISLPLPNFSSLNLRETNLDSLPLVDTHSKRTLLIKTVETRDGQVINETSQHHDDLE
GST-tagged vimentin head domain deletion mutant ΔH (102-467 aa): residues 102-466 of P08670
UniProt P17936, residues 28-291: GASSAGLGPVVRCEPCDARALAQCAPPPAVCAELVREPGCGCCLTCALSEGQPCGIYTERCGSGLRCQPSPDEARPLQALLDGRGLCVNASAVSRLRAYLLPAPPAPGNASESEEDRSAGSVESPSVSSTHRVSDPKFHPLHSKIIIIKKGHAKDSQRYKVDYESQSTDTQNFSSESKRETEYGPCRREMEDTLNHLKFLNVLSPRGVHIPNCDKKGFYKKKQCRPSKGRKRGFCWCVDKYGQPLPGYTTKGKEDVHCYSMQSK

Key:
HA-tagged FBXL14 = HA-tagged FBXL14 (UniProt Q8N1E6); experiment: co-IP; HEK293T cells transiently transfected, treated with MG132 (10 µM) for 6 h; IP with anti-HA antibody, Western blot
[1] = molecular target: vimentin, endogenous (human (endogenous in UMSCC38, OSC19-Luc, HEK293T)) (UniProt P08670); experiment: co-IP; lysates (EBC lysis buffer) of MG132-treated UMSCC38-shEV cells, of UMSCC38-shBP3 cells and of OSC19-Luc cells transfected with EV or pCMV6-IGFBP3; IP with anti-vimentin or anti-IGFBP-3 antibodies, Protein A agarose, Western blot
[2] = molecular target: vimentin in HEK293T cells cotransfected with an expression vector for vimentin (human) (UniProt P08670); experiment: co-IP; HEK293T cells transiently cotransfected, treated with MG132 (10 µM) for 6 h; IP with anti-vimentin antibody, Western blot
[3] = molecular target: GST-tagged recombinant full-length vimentin protein (human) (UniProt P08670); experiment: pull-down; glutathione-agarose-bound GST-vimentin incubated with UMSCC38 cell lysates; TNE binding buffer, 2 h or overnight at 4 °C; Western blot; only the target purified
[4] = molecular target: GST-tagged vimentin head domain deletion mutant ΔH (102-467 aa) (human) (UniProt P08670); experiment: pull-down; in vitro binding: glutathione-agarose-bound GST-vimentin (full-length, domains or deletion mutants) incubated with purified recombinant IGFBP-3 or its C-terminal domain; TNE binding buffer, 4 °C; Western blot; both purified
[5] = molecular target: vimentin, endogenous (human (endogenous in UMSCC38, OSC19-Luc, HEK293T)) (UniProt P08670); experiment: co-IP; UM38-shBP3 cells transfected with HA-FBXL14, treated with rBP3 (5 µg/mL) for 48 h, with or without MG132 (10 µM) 6 h, washed; IP of lysates (antibody not told), Western blot; rBP3 added as recombinant protein; only the binder purified

binding [1] | binding [2] | Molecule | also measured
binds | binds | IGFBP-3 expressed from pCMV6-IGFBP3 (no signal peptide) (from UniProt P17936 28-291) | binding (HA-tagged FBXL14): binds
binds | – | insulin-like growth factor binding protein-3 (IGFBP-3), endogenous (from UniProt P17936 28-291) | binding [3]: binds
– | – | recombinant IGFBP-3 protein (rBP3) of the in vitro binding assays with vimentin domains (from UniProt P17936 28-291) | binding [4]: no binding
– | – | recombinant IGFBP-3 protein in full-length [rBP3 (FL)], added to cells (from UniProt P17936 28-291) | binding [5]: binds
– | no binding | Flag-tagged FBXO1 (Cyclin F) (enzyme, UniProt P41002 1-786) MGSGGVVHCRCAKCFCYPTKRRIRRRPRNLTILSLPEDVLFHILKWLSVEDILAVRAVHSQLKDLVDNHASVWACASFQELWPSPGNLKLFERAAEKGNFEAAVKLGIAYLYNEGLSVSDEARAEVNGLKASRFFSLAERLNVGAAPFIWLFIRPPWSVSGSCCKAVVHESLRAECQLQRTHKASILHCLGRVLSLFEDEEKQQQAHDLFEEAAHQGCLTSSYLLWESDRRTDVSDPGRCLHSFRKLRDYAAKGCWEAQLSLAKACANANQLGLEVRASSEIVCQLFQASQAVSKQQVFSVQKGLNDTMRYILIDWLVEVATMKDFTSLCLHLTVECVDRYLRRRLVPRYRLQLLGIACMVICTRFISKEILTIREAVWLTDNTYKYEDLVRMMGEIVSALEGKIRVPTVVDYKEVLLTLVPVELRTQHLCSFLCELSLLHTSLSAYAPARLAAAALLLARLTHGQTQPWTTQLWDLTGFSYEDLIPCVLSLHKKCFHDDAPKDYRQVSLTAVKQRFEDKRYGEISQEEVLSYSQLCAALGVTQDSPDPPTFLSTGEIHAFLSSPSGRRTKRKRENSLQEDRGSFVTTPTAELSSQEETLLGSFLDWSLDCCSGYEGDQESEGEKEGDVTAPSGILDVTVVYLNPEQHCCQESSDEEACPEDKGPQDPQALALDTQIPATPGPKPLVRTSREPGKDVTTSGYSSVSTASPTSSVDGGLGALPQPTSVLSLDSDSHTQPCHHQARKSCLQCRPPSPPESSVPQQQVKRINLCIHSEEEDMNLGLVRL | –
